For 11 targets, log2 fold change results are on record in the supplement of paper PMC12819154, “High-throughput peptide-centric local stability assay extends protein–ligand identification to membrane proteins, tissues and bacteria” (Nature Structural & Molecular Biology, 2025).

Amino acid sequences for entries named in this document (tags omitted). A change or cut given only in a name is not applied to a line headed by its entry.
UniProt O75330: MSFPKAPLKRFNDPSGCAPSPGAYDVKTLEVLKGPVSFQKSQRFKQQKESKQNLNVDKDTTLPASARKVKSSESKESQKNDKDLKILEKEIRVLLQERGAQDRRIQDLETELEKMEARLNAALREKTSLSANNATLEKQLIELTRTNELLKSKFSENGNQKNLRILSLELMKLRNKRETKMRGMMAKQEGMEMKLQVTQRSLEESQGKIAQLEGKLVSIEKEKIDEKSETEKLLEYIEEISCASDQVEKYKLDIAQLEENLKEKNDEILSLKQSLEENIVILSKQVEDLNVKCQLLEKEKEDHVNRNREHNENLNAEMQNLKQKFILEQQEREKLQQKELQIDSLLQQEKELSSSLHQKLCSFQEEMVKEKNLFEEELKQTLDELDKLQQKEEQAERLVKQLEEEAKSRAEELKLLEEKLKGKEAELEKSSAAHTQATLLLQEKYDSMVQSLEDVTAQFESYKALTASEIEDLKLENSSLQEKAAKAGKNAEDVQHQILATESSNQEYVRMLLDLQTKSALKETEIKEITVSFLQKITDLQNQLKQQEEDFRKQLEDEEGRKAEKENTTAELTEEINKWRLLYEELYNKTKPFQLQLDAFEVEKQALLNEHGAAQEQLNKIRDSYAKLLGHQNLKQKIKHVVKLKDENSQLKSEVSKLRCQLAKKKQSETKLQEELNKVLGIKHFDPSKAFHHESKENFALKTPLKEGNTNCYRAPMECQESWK
UniProt O43929: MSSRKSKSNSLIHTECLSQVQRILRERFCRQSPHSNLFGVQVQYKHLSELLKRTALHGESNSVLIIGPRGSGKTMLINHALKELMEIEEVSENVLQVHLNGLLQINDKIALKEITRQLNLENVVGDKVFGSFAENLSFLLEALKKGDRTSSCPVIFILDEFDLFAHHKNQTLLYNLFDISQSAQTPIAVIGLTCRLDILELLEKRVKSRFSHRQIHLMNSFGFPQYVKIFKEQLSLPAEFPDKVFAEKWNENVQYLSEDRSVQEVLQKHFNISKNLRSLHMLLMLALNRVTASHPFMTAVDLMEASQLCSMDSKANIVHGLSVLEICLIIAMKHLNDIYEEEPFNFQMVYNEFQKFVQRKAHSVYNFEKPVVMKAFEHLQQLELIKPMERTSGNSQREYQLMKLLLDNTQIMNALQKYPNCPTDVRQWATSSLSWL
UniProt O60765: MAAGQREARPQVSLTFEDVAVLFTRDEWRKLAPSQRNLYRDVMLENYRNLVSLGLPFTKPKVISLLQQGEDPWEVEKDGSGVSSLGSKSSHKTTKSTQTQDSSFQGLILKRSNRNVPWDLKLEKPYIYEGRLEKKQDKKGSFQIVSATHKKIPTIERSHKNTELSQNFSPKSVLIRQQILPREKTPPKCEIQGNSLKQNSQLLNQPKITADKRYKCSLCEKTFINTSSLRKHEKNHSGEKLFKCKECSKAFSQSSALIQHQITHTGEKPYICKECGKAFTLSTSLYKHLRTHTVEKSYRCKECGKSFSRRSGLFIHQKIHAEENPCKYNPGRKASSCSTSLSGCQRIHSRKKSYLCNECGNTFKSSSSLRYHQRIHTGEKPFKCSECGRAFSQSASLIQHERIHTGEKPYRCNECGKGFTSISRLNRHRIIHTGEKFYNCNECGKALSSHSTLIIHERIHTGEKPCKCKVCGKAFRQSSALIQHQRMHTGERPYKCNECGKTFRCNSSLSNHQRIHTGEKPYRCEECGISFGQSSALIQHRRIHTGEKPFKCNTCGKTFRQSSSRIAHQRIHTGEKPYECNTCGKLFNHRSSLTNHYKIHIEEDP
UniProt O43865, whole entry: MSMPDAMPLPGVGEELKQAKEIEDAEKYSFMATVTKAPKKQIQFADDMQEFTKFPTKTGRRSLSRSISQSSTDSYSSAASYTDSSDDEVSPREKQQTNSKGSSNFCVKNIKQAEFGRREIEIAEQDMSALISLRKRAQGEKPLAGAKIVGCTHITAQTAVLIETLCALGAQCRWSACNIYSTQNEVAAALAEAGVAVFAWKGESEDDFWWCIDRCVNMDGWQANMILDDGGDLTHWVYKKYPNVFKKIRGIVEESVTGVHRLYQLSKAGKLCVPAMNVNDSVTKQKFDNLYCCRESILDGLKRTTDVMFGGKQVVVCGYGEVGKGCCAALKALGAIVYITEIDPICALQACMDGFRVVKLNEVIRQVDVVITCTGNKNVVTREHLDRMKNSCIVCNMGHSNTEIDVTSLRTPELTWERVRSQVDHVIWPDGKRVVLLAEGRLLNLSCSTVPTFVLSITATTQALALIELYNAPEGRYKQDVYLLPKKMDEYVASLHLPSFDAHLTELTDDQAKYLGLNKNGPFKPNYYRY
UniProt O43766: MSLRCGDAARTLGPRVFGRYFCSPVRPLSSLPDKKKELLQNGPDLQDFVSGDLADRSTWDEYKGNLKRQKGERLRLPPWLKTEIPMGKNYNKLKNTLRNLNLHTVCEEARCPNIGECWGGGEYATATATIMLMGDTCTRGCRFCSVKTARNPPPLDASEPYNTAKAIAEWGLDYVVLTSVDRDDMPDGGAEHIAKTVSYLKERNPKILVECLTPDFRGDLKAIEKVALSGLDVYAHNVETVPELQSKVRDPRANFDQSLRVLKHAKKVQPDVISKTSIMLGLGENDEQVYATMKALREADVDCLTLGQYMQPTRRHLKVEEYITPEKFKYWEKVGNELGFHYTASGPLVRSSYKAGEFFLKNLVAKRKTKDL
UniProt O75030: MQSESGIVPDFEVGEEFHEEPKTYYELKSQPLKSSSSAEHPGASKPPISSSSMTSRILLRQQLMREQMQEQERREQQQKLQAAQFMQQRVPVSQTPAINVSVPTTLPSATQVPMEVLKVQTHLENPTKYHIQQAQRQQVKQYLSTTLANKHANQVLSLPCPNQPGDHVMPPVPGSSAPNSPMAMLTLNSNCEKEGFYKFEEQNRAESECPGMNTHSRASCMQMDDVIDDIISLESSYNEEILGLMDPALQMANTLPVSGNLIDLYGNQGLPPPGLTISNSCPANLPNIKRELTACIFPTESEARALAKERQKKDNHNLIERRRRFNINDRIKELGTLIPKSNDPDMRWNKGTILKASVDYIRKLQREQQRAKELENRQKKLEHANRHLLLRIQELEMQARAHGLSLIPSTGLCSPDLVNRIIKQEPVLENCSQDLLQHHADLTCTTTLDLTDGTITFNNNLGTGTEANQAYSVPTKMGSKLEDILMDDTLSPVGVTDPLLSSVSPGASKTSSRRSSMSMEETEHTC
UniProt O43167: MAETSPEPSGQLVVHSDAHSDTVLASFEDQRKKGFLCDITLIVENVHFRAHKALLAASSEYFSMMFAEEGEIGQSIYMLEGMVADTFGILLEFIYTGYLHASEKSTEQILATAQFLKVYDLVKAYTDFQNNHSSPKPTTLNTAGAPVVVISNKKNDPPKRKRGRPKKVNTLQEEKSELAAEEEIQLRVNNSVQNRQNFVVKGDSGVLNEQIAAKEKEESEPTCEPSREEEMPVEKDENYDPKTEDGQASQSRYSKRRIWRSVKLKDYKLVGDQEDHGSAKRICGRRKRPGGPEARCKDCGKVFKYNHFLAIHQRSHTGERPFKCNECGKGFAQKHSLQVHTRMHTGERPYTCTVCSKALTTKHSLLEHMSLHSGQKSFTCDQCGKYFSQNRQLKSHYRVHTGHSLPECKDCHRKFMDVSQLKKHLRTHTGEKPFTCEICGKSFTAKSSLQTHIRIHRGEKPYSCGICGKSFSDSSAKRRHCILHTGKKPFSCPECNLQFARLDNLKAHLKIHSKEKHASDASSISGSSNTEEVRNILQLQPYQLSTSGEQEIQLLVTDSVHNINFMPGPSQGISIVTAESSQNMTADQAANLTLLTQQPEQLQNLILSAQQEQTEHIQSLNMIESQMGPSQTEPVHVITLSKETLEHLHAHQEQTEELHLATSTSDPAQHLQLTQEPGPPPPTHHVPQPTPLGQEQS
UniProt O43670: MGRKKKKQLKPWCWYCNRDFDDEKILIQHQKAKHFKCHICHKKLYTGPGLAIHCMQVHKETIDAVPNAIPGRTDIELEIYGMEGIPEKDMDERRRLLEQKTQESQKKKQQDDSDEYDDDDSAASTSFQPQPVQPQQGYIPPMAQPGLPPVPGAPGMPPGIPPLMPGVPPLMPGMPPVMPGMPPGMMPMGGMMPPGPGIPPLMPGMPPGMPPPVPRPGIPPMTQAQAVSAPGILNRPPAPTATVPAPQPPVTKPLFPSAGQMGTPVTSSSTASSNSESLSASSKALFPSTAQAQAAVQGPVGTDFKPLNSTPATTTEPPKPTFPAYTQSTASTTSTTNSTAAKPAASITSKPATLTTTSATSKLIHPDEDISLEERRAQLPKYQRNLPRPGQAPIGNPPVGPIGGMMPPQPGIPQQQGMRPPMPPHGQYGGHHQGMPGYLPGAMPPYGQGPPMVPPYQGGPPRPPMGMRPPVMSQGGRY
UniProt O60930: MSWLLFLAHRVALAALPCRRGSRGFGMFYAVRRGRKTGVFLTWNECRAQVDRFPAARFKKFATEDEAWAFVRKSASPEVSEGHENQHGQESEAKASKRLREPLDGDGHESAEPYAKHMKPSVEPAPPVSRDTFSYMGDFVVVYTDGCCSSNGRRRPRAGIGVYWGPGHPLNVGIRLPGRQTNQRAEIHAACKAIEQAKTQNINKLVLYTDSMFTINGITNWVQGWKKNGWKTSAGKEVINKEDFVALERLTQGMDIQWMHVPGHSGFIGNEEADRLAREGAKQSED
UniProt O43502: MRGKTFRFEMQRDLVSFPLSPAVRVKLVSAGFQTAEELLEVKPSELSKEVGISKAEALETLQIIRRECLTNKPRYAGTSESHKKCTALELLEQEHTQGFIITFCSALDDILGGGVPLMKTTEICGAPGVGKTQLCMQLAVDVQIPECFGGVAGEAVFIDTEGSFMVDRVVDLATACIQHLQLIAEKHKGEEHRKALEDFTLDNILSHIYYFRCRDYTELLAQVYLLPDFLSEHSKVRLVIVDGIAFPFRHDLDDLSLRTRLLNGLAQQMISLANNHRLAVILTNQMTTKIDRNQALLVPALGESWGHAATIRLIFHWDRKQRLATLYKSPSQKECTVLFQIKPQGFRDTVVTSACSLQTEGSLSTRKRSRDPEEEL

This is one part of the list. Small differences around the control level are noise.

Compound in the assay: CN[C@@H]1C[C@H]2O[C@@](C)([C@@H]1OC)n1c3ccccc3c3c4c(c5c6ccccc6n2c5c31)C(=O)NC4 [staurosporine]
As to the kind of experiment: log2 fold change of tryptic peptide abundance, ligand vs vehicle (limited proteolysis) (log2 ratio); higher = more trypsin-susceptible (destabilized). Conditions: ligand concentration: 20 uM; sample: K562 cleared lysate; digestion: 4 min, 22 C (HT-PELSA RT4min, Orbitrap Astral).
On to “KALRN (peptide sequence: GSSYNPPLPPLK, peptide start residue: 2279) (UniProt O60229)”, for which the log2 fold change was found to be 0.371.
As for “HMMR (peptide sequence: LDIAQLEENLKEKNDEILSLK, peptide start residue: 252) (UniProt O75330)”, the figure is 0.642.
For “UniProt O43929 (peptide sequence: SNSLIHTECLSQVQR, peptide start residue: 8)” the value was -0.102; for “UniProt O60765 (peptide sequence: NLVSLGLPFTK, peptide start residue: 49)”, -0.0755.
As for “UniProt O43865 (peptide sequence: EIEDAEKYSFMATVTK, peptide start residue: 21)”, the log2 fold change is -0.15.
For “LIAS (peptide sequence: KVQPDVISK, peptide start residue: 267) (UniProt O43766)” the value was -0.352; for “MITF (peptide sequence: YHIQQAQR, peptide start residue: 129) (UniProt O75030)”, 0.315; for “ZBTB24 (peptide sequence: YNHFLAIHQR, peptide start residue: 305) (UniProt O43167)”, -0.386.
For “ZNF207 (peptide sequence: ILIQHQK, peptide start residue: 25) (UniProt O43670)” the value was 0.421.
For “RNASEH1 (peptide sequence: AGIGVYWGPGHPLNVGIRLPGR, peptide start residue: 158) (UniProt O60930)” the value was -0.714; for “RAD51C (peptide sequence: AEALETLQIIRR, peptide start residue: 55) (UniProt O43502)”, -0.17.
